Data: PubChem BioAssay AID248 (DTP/NCI, 2004)
The list does not hold the whole screen: it is rich in T/C values a quarter to a half above the control, in often repeated tests (any T/C) and in doses without a T/C. Other doses and runs of a compound stand elsewhere. T/C: endpoint of the treated group in % of that of the vehicle group. Some entries give survivors of the animals treated and no T/C: the source files T/C as zero there, which appears to mark a toxic dose or a test without result, not a measured value. Some doses without a T/C left all or most animals alive at the check, yet need not have been tolerated: the source hardly ever lists a survival T/C far under the control, and the zero likely stands for such cases as well. Survivors were counted at the toxicity check, usually on the fifth day, unless a day is given; later deaths do not show. Schedule codes are those of the source, read here as Q, the interval in days (D) or hours (H), X, the number of doses. Some doses were run more than once; their values stand side by side, smallest first. Some schedules carry Z or #; the key to these is not given. For survival time, the PubChem record calls one and a half times the control and up active, and a quarter to a half above the control has no call in these data; cut-offs in other NCI protocols can differ. Some T/C values carry the count of animals alive at the toxicity check (mostly the fifth day); where none is given, no animal had died by that day.

System: L1210 leukemia ip in BDF1 mice, survival T/C
Assay: NCI In Vivo Anticancer Drug Screen. Data for tumor model L1210 Leukemia (intraperitoneal) in B6D2F1 (BDF1) mice
Conditions: T/C endpoint: mean survival time, higher T/C = longer survival

With `OC(CBr)C(O)C(O)C(O)CBr` (centres undefined) the T/C (dose: 37.5 mg/kg/injection, schedule: Q03HX024 (ip), vehicle: carboxymethylcellulose (CMC)) was 148 % of control, the T/C (dose: 50.0 mg/kg/injection, schedule: Q01DX009 (ip), vehicle: other) was 131 % of control [5 of 6 alive] and the survivor count (dose: 62.5 mg/kg/injection, schedule: Q01DX Z (ip), vehicle: carboxymethylcellulose (CMC)) was 6 of 6. The T/C (dose: 62.5 mg/kg/injection, schedule: Q04DX024 (ip), vehicle: carboxymethylcellulose (CMC)) was 132 % of control, the T/C (dose: 75.0 mg/kg/injection, schedule: Q06HX012 (ip), vehicle: carboxymethylcellulose (CMC)) was 130 % of control and the T/C (dose: 100.0 mg/kg/injection, schedule: Q01DX009 (ip), vehicle: other) was 135 % of control. The T/C (dose: 120.0 mg/kg/injection, schedule: Q01DX009 (ip), vehicle: carboxymethylcellulose (CMC)) was 139 % of control, the T/C (dose: 120.0 mg/kg/injection, schedule: Q01DX009 (sc), vehicle: carboxymethylcellulose (CMC)) was 136 % of control and the survivor count (dose: 120.0 mg/kg/injection, schedule: Q## X024 (ip), vehicle: carboxymethylcellulose (CMC)) was 1 of 10. The T/C (dose: 125.0 mg/kg/injection, schedule: Q01DX015 (ip), vehicle: carboxymethylcellulose (CMC)) was 129 % of control, the survivor count (dose: 125.0 mg/kg/injection, schedule: Q03HX008 (ip), vehicle: carboxymethylcellulose (CMC)) was 9 of 10 and the survivor count (dose: 125.0 mg/kg/injection, schedule: Q04DX024 (ip), vehicle: carboxymethylcellulose (CMC)) was 9 of 10. The T/C (dose: 125.0 mg/kg/injection, schedule: Q#A X034 (ip), vehicle: carboxymethylcellulose (CMC)) was 128 % of control, the T/C (dose: 150.0 mg/kg/injection, schedule: Q01DX009 (ip), vehicle: carboxymethylcellulose (CMC)) was 138 % of control and the survivor count (dose: 150.0 mg/kg/injection, schedule: Q03HX024 (ip), vehicle: carboxymethylcellulose (CMC)) was 8 of 8. The T/C (dose: 150.0 mg/kg/injection, schedule: Q04DX003 (ip), vehicle: carboxymethylcellulose (CMC)) was 125 % of control, the T/C (dose: 150.0 mg/kg/injection, schedule: Q12HX006 (ip), vehicle: carboxymethylcellulose (CMC)) was 146 % of control and the T/C (dose: 160.0 mg/kg/injection, schedule: Q01DX009 (ip), vehicle: saline) was 131 % of control [5 of 6 alive]. For the same compound, the T/C (dose: 200.0 mg/kg/injection, schedule: Q01DX009 (ip), vehicle: other) was 135 % of control, the T/C (dose: 200.0 mg/kg/injection, schedule: Q04DX003 (ip), vehicle: Klucel (hydroxypropylcellulose) (HPC)) was 135 % of control and the T/C (dose: 200.0 mg/kg/injection, schedule: Q## X003 (ip), vehicle: other) was 149 % of control. For the same compound, the survivor count (dose: 240.0 mg/kg/injection, schedule: Q01DX005 (ip), vehicle: carboxymethylcellulose (CMC)) was 9 of 10, the survivor count (dose: 240.0 mg/kg/injection, schedule: Q01DX009 (ip), vehicle: carboxymethylcellulose (CMC)) was 9 of 10 and the T/C (dose: 240.0 mg/kg/injection, schedule: Q01DX009 (oral), vehicle: carboxymethylcellulose (CMC)) was 147 % of control [9 of 10 alive]. For the same compound, the survivor count (dose: 240.0 mg/kg/injection, schedule: Q## X003 (ip), vehicle: carboxymethylcellulose (CMC)) was 9 of 10, the survivor count (dose: 240.0 mg/kg/injection, schedule: Q## X024 (ip), vehicle: carboxymethylcellulose (CMC)) was 5 of 10 and the T/C (dose: 250.0 mg/kg/injection, schedule: Q01DX Z (ip), vehicle: carboxymethylcellulose (CMC)) was 126 and 147 % of control. For the same compound, the T/C (dose: 250.0 mg/kg/injection, schedule: Q04DX005 (ip), vehicle: carboxymethylcellulose (CMC)) was 131 % of control, the T/C (dose: 300.0 mg/kg/injection, schedule: Q04DX003 (ip), vehicle: carboxymethylcellulose (CMC)) was 135 % of control and the survivor count (dose: 300.0 mg/kg/injection, schedule: Q06HX012 (ip), vehicle: carboxymethylcellulose (CMC)) was 8 of 8. The T/C (dose: 300.0 mg/kg/injection, schedule: Q12HX006 (ip), vehicle: carboxymethylcellulose (CMC)) was 138 % of control, the T/C (dose: 400.0 mg/kg/injection, schedule: Q01DX001 (ip), vehicle: other) was 140 % of control and the T/C (dose: 400.0 mg/kg/injection, schedule: Q01DX009 (ip), vehicle: acetone) was 126 % of control. For the same compound, the survivor count (dose: 400.0 mg/kg/injection, schedule: Q01DX009 (ip), vehicle: other) was 5 of 6, the T/C (dose: 400.0 mg/kg/injection, schedule: Q## X024 (ip), vehicle: other) was 134 % of control and the survivor count (dose: 480.0 mg/kg/injection, schedule: Q01DX001 (ip), vehicle: carboxymethylcellulose (CMC)) was 9 of 10. The T/C (dose: 480.0 mg/kg/injection, schedule: Q01DX001 (sc), vehicle: carboxymethylcellulose (CMC)) was 134 % of control, the survivor count (dose: 480.0 mg/kg/injection, schedule: Q01DX005 (ip), vehicle: carboxymethylcellulose (CMC)) was 7 of 10 and the survivor count (dose: 480.0 mg/kg/injection, schedule: Q01DX009 (ip), vehicle: carboxymethylcellulose (CMC)) was 9 of 10. The survivor count (dose: 480.0 mg/kg/injection, schedule: Q## X003 (ip), vehicle: carboxymethylcellulose (CMC)) was 6 of 10, the T/C (dose: 480.0 mg/kg/injection, schedule: Q## X003 (oral), vehicle: carboxymethylcellulose (CMC)) was 136 % of control and the survivor count (dose: 500.0 mg/kg/injection, schedule: Q01DX009 (ip), vehicle: carboxymethylcellulose (CMC)) was 10 of 10. The survivor count (dose: 500.0 mg/kg/injection, schedule: Q01DX017 (ip), vehicle: carboxymethylcellulose (CMC)) was 9 of 10, the T/C (dose: 500.0 mg/kg/injection, schedule: Q02DX008 (ip), vehicle: carboxymethylcellulose (CMC)) was 132 % of control [5 of 6 alive] and the T/C (dose: 500.0 mg/kg/injection, schedule: Q04DX003 (ip), vehicle: carboxymethylcellulose (CMC)) was 135 % of control. For the same compound, the T/C (dose: 500.0 mg/kg/injection, schedule: Q04DX005 (ip), vehicle: carboxymethylcellulose (CMC)) was 145 % of control, the T/C (dose: 600.0 mg/kg/injection, schedule: Q01DX009 (ip), vehicle: acetone) was 142 % of control and the T/C (dose: 600.0 mg/kg/injection, schedule: Q08DX002 (ip), vehicle: carboxymethylcellulose (CMC)) was 141 % of control. The survivor count (dose: 600.0 mg/kg/injection, schedule: Q12HX006 (ip), vehicle: carboxymethylcellulose (CMC)) was 7 of 8, the T/C (dose: 800.0 mg/kg/injection, schedule: Q01DX001 (ip), vehicle: other) was 140 % of control and the T/C (dose: 900.0 mg/kg/injection, schedule: Q04DX003 (ip), vehicle: acetone) was 131 % of control. For the same compound, the survivor count (dose: 960.0 mg/kg/injection, schedule: Q01DX001 (ip), vehicle: carboxymethylcellulose (CMC)) was 8 of 10, the survivor count (dose: 960.0 mg/kg/injection, schedule: Q01DX005 (ip), vehicle: carboxymethylcellulose (CMC)) was 5 of 10 and the survivor count (dose: 960.0 mg/kg/injection, schedule: Q01DX009 (oral), vehicle: carboxymethylcellulose (CMC)) was 8 of 9. For the same compound, the survivor count (dose: 960.0 mg/kg/injection, schedule: Q01DX009 (sc), vehicle: carboxymethylcellulose (CMC)) was 8 of 10, the survivor count (dose: 960.0 mg/kg/injection, schedule: Q## X003 (ip), vehicle: carboxymethylcellulose (CMC)) was 9 of 10 and the survivor count (dose: 960.0 mg/kg/injection, schedule: Q## X024 (ip), vehicle: carboxymethylcellulose (CMC)) was 10 of 10. For the same compound, the survivor count (dose: 1000.0 mg/kg/injection, schedule: Q01DX001 (ip), vehicle: carboxymethylcellulose (CMC)) was 10 of 10, the survivor count (dose: 1000.0 mg/kg/injection, schedule: Q01DX009 (ip), vehicle: carboxymethylcellulose (CMC)) was 7 of 10 and the survivor count (dose: 1000.0 mg/kg/injection, schedule: Q01DX Z (ip), vehicle: carboxymethylcellulose (CMC)) was 8 of 8. For the same compound, the survivor count (dose: 1000.0 mg/kg/injection, schedule: Q02DX005 (ip), vehicle: carboxymethylcellulose (CMC)) was 8 of 10 and 10 of 10, the survivor count (dose: 1000.0 mg/kg/injection, schedule: Q02DX008 (ip), vehicle: carboxymethylcellulose (CMC)) was 1 of 6 and the survivor count (dose: 1000.0 mg/kg/injection, schedule: Q02DX009 (ip), vehicle: carboxymethylcellulose (CMC)) was 10 of 10. For the same compound, the survivor count (dose: 1000.0 mg/kg/injection, schedule: Q04DX005 (ip), vehicle: carboxymethylcellulose (CMC)) was 10 of 10, the T/C (dose: 1200.0 mg/kg/injection, schedule: Q08DX002 (ip), vehicle: carboxymethylcellulose (CMC)) was 141 % of control and the T/C (dose: 1440.0 mg/kg/injection, schedule: Q01DX001 (oral), vehicle: carboxymethylcellulose (CMC)) was 144 % of control. For the same compound, the survivor count (dose: 1440.0 mg/kg/injection, schedule: Q01DX009 (oral), vehicle: carboxymethylcellulose (CMC)) was 10 of 10 and the survivor count (dose: 1440.0 mg/kg/injection, schedule: Q02DX005 (oral), vehicle: carboxymethylcellulose (CMC)) was 7 of 10.

With `OC1C2CCN(CC2)C1CNC12CC3CC(CC(C3)C1)C2` (centres undefined) the survivor count (dose: 400.0 mg/kg/injection, schedule: Q04DX003 (ip), vehicle: saline) was 0 of 6.
